These are yes or no findings as the source states them, for the method shown. Binding seen in cells or lysates may run through a third protein. Some binding calls cover weakened binding; strength is not graded here. For some assays here: Sequences can lack the tags named with a protein.

Sequences of proteins named here, by UniProt entry; tags and fusion partners are left off.
UniProt P14618: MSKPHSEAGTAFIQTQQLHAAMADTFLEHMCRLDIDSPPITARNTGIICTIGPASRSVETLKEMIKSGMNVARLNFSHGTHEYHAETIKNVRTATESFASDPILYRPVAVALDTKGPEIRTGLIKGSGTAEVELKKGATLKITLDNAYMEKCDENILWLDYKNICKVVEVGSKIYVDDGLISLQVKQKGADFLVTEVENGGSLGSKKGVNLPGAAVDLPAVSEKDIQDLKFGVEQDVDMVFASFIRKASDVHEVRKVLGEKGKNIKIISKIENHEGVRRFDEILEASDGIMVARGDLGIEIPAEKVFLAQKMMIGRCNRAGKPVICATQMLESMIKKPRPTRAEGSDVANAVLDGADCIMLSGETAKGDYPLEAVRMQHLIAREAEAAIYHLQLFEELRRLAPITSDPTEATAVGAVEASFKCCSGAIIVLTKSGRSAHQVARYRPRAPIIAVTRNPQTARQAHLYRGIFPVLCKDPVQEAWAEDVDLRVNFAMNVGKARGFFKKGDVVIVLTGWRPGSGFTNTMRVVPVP

Assay [1] has as its target T1, His-tagged NEK2 (NIMA-related kinase 2), expressed in 293T (human) (UniProt P51955).
T1 sequence: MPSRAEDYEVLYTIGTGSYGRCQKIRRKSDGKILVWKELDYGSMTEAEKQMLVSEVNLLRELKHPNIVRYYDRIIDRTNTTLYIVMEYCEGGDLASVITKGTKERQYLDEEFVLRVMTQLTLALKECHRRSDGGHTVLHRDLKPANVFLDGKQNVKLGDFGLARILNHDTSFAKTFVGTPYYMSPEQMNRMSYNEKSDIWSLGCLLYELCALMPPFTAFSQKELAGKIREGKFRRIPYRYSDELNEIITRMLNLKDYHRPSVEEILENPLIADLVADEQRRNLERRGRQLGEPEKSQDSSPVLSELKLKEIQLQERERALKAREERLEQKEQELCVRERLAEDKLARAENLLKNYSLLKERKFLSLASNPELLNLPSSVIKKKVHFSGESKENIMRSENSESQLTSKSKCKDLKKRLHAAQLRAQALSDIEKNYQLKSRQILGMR
The assay is described as follows: co-IP; 293T cells transfected with His-NEK2 and Flag-PKM2 plasmids, harvested after 48 hours; anti-Flag M2 magnetic beads and 6X His antibody; western blot. (In general: Immunoblotting shows a protein as a band on a membrane.)

For assay [2], the target named is T2, NEK2 (NIMA-related kinase 2), endogenous (human (endogenous in OCI-Ly3 and SU-DHL-4)) (UniProt P51955).
T2 sequence: T1 sequence
The assay is described as follows: co-IP; endogenous IP from OCI-Ly3 and SU-DHL-4 lysates with antibodies against NEK2 or PKM2, normal mouse IgG as negative control; protein A/G PLUS agarose; western blot.

Turning to “Flag-tagged PKM2 (from UniProt P14618 1-531) (enzyme)”, in assay [1], the binding result was “binds”.

Take “PKM2, endogenous (from UniProt P14618 1-531) (enzyme)”: the binding result in assay [2] is recorded as “binds”.

The values are drawn from PMC8217770.
